Experimental data as given in the supplement of paper PMC12282887.
± gives the standard deviation of the averaged measurements. Values are raw readings; no control value is given beside them.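 For antimicrobials the highest concentration approximated the MIC. Most other compounds topped out at 500 µM, and known inducer-like compounds reached up to 1 mM. Inocula for deletion strains were tenfold smaller, and any well growing below 10% of the overall median was considered non-growing.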

Test system: Escherichia coli BW25113
Assay: growth (OD600 area under curve, 8 h) (OD600 x h); higher = more growth
Procedure: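 E. coli BW25113 reporter strains (wild type, ΔmarA, ΔsoxS, Δrob, each carrying one of 8 lux reporter plasmids) were grown in 40 µl LB in 384-well plates at 37°C, 800 rpm, with each compound at 4 two-fold concentrations, in biological duplicates. Growth is the baseline-corrected OD600 area under the curve over 8 h (0-8 h WT, 1-9 h deletion strains).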

COc1ccc(CCN(C)CCCC(C#N)(c2ccc(OC)c(OC)c2)C(C)C)cc1OC (stereo unspecified) [Verapamil]
growth
Conditions | reporter plasmid: EVC | reporter plasmid: acrABp | reporter plasmid: marRABp | reporter plasmid: micFp | reporter plasmid: ompFp | reporter plasmid: robp | reporter plasmid: soxSp | reporter plasmid: tolCp
28.4 µg/ml, genetic background: wild type | 2.81 ± 0.091 | 2.52 ± 0.082 | 2.51 ± 0.31 | 2.526 ± 0.0089 | 2.59 ± 0.23 | 2.65 ± 0.26 | 2.51 ± 0.081 | 2.44 ± 0.086
28.4 µg/ml, genetic background: ΔmarA | 2.76 ± 0.084 | 2.95 ± 0.37 | 2.87 ± 0.11 | 3.14 ± 0.69 | 2.9684 ± 0.00016 | 3.06 ± 0.099 | 2.82 ± 0.41 | 2.84 ± 0.33
28.4 µg/ml, genetic background: Δrob | 2.48 ± 0.064 | 2.36 ± 0.11 | 2.52 ± 0.035 | 2.55 ± 0.44 | 2.31 ± 0.41 | 2.429 ± 0.011 | 2.33 ± 0.14 | 2.222 ± 0.0035
28.4 µg/ml, genetic background: ΔsoxS | 2.98 ± 0.69 | 2.72 ± 0.049 | 2.74 ± 0.12 | 2.82 ± 0.19 | 2.7 ± 0.078 | 2.68 ± 0.12 | 2.57 ± 0.15 | 2.59 ± 0.27
56.8 µg/ml, genetic background: wild type | 2.93 ± 0.16 | 2.41 ± 0.18 | 2.36 ± 0.11 | 2.51 ± 0.017 | 2.65 ± 0.095 | 2.61 ± 0.24 | 2.5 ± 0.028 | 2.424 ± 0.0062
56.8 µg/ml, genetic background: ΔmarA | 2.8 ± 0.28 | 2.86 ± 0.51 | 2.66 ± 0.43 | 3.19 ± 0.84 | 2.91 ± 0.26 | 3.14 ± 0.1 | 2.62 ± 0.17 | 2.83 ± 0.27
56.8 µg/ml, genetic background: Δrob | 2.68 ± 0.28 | 2.43 ± 0.028 | 2.32 ± 0.14 | 2.66 ± 0.31 | 2.25 ± 0.62 | 2.27 ± 0.11 | 2.462 ± 0.018 | 2.25 ± 0.059
56.8 µg/ml, genetic background: ΔsoxS | 3.07 ± 0.59 | 3.12 ± 0.27 | 2.52 ± 0.087 | 2.84 ± 0.22 | 2.84 ± 0.2 | 2.72 ± 0.15 | 2.49 ± 0.083 | 2.81 ± 0.66
113.7 µg/ml, genetic background: wild type | 3.174 ± 0.014 | 2.36 ± 0.23 | 2.366 ± 0.013 | 2.66 ± 0.052 | 2.52 ± 0.055 | 2.41 ± 0.093 | 2.63 ± 0.15 | 2.74 ± 0.055
113.7 µg/ml, genetic background: ΔmarA | 3.1 ± 0.41 | 2.62 ± 0.46 | 2.46 ± 0.48 | 3.31 ± 0.41 | 2.83 ± 0.26 | 2.79 ± 0.12 | 2.78 ± 0.038 | 2.98 ± 0.17
113.7 µg/ml, genetic background: Δrob | 2.9 ± 0.44 | 2.45 ± 0.11 | 2.14 ± 0.022 | 2.88 ± 0.36 | 2.12 ± 0.52 | 2.08 ± 0.057 | 2.74 ± 0.11 | 2.58 ± 0.057
113.7 µg/ml, genetic background: ΔsoxS | 2.98 ± 0.47 | 3.03 ± 0.28 | 2.43 ± 0.13 | 3.13 ± 0.18 | 2.9 ± 0.42 | 2.62 ± 0.11 | 2.59 ± 0.2 | 2.98 ± 0.49
227.3 µg/ml, genetic background: wild type | 3.166 ± 0.016 | 2.16 ± 0.19 | 2.02 ± 0.046 | 2.81 ± 0.17 | 2.45 ± 0.1 | 2.14 ± 0.033 | 2.73 ± 0.047 | 2.91 ± 0.064
227.3 µg/ml, genetic background: ΔmarA | 3.61 ± 0.6 | 2.5 ± 0.51 | 2.21 ± 0.36 | 3.61 ± 0.3 | 2.27 ± 0.47 | 2.45 ± 0.087 | 3.4 ± 0.2 | 3.339 ± 0.031
227.3 µg/ml, genetic background: Δrob | 3.38 ± 0.26 | 2.31 ± 0.067 | 2.04 ± 0.028 | 3.29 ± 0.11 | 1.84 ± 0.5 | 1.72 ± 0.052 | 3 ± 0.22 | 3.25 ± 0.061
227.3 µg/ml, genetic background: ΔsoxS | 3.527 ± 0.031 | 2.92 ± 0.054 | 2.25 ± 0.089 | 3.28 ± 0.062 | 2.66 ± 0.27 | 2.12 ± 0.037 | 2.76 ± 0.63 | 3.42 ± 0.19

C[n+]1ccc(-c2cc[n+](C)cc2)cc1 [Paraquat]
growth
Conditions | reporter plasmid: EVC | reporter plasmid: acrABp | reporter plasmid: marRABp | reporter plasmid: micFp | reporter plasmid: ompFp | reporter plasmid: robp | reporter plasmid: soxSp | reporter plasmid: tolCp
0.64 µg/ml, genetic background: wild type | 3.17 ± 0.42 | 3.07 ± 0.17 | 3.03 ± 0.14 | 3.27 ± 0.13 | 2.95 ± 0.29 | 3.19 ± 0.1 | 2.83 ± 0.036 | 3.3 ± 0.1
0.64 µg/ml, genetic background: ΔmarA | 3.2 ± 0.49 | 3.95 ± 0.15 | 3.5 ± 0.047 | 3.18 ± 0.76 | 3.34 ± 0.93 | 3.48 ± 0.29 | 2.68 ± 0.4 | 2.91 ± 0.11
0.64 µg/ml, genetic background: Δrob | 3.13 ± 0.63 | 2.98 ± 0.081 | 3.15 ± 0.58 | 3.23 ± 0.29 | 2.45 ± 0.61 | 2.63 ± 0.32 | 2.72 ± 0.32 | 3.28 ± 0.15
0.64 µg/ml, genetic background: ΔsoxS | 3.43 ± 0.1 | 3.1 ± 0.1 | 2.85 ± 0.25 | 3.04 ± 0.22 | 3.13 ± 0.078 | 3.05 ± 0.31 | 2.85 ± 0.3 | 3.32 ± 0.14
1.3 µg/ml, genetic background: wild type | 3.07 ± 0.44 | 3.1 ± 0.27 | 3.065 ± 0.0089 | 3.15 ± 0.23 | 2.85 ± 0.39 | 3.111 ± 0.02 | 2.74 ± 0.14 | 3.28 ± 0.074
1.3 µg/ml, genetic background: ΔmarA | 3.04 ± 0.48 | 3.95 ± 0.13 | 3.42 ± 0.17 | 2.95 ± 0.48 | 3.32 ± 0.92 | 3.51 ± 0.26 | 2.45 ± 0.45 | 2.8 ± 0.4
1.3 µg/ml, genetic background: Δrob | 2.91 ± 0.73 | 2.82 ± 0.11 | 3.15 ± 0.58 | 2.95 ± 0.26 | 2.38 ± 0.47 | 2.61 ± 0.055 | 2.5 ± 0.44 | 3.15 ± 0.13
1.3 µg/ml, genetic background: ΔsoxS | 3.19 ± 0.25 | 3.12 ± 0.055 | 2.81 ± 0.28 | 2.85 ± 0.33 | 3.07 ± 0.16 | 3 ± 0.32 | 2.59 ± 0.27 | 3.2 ± 0.059
2.6 µg/ml, genetic background: wild type | 3.11 ± 0.25 | 2.71 ± 0.28 | 2.92 ± 0.16 | 3.06 ± 0.21 | 2.9 ± 0.14 | 3.13 ± 0.072 | 2.43 ± 0.16 | 3.1 ± 0.1
2.6 µg/ml, genetic background: ΔmarA | 2.91 ± 0.22 | 3.89 ± 0.22 | 3.54 ± 0.18 | 2.99 ± 0.48 | 3.23 ± 0.94 | 3.5 ± 0.35 | 2.17 ± 0.41 | 2.63 ± 0.48
2.6 µg/ml, genetic background: Δrob | 3.06 ± 0.51 | 2.92 ± 0.026 | 3.17 ± 0.36 | 2.82 ± 0.46 | 2.22 ± 0.39 | 2.55 ± 0.055 | 2.34 ± 0.33 | 3.25 ± 0.094
2.6 µg/ml, genetic background: ΔsoxS | 3.1 ± 0.34 | 3.12 ± 0.28 | 3.04 ± 0.49 | 2.95 ± 0.13 | 3.08 ± 0.24 | 3.23 ± 0.4 | 2.36 ± 0.27 | 3.21 ± 0.074
5.1 µg/ml, genetic background: wild type | 2.48 ± 0.19 | 1.55 ± 0.21 | 1.98 ± 0.36 | 1.88 ± 0.078 | 1.44 ± 0.34 | 1.94 ± 0.26 | 1.64 ± 0.04 | 2.54 ± 0.057
5.1 µg/ml, genetic background: ΔmarA | 2.39 ± 0.36 | 2.98 ± 0.37 | 2.11 ± 0.17 | 2.24 ± 0.65 | 1.89 ± 0.78 | 2.58 ± 0.92 | 1.28 ± 0.019 | 1.95 ± 0.046
5.1 µg/ml, genetic background: Δrob | 2.44 ± 0.77 | 1.58 ± 0.45 | 1.97 ± 0.55 | 2.12 ± 0.65 | 1 ± 0.48 | 1.28 ± 0.014 | 1.46 ± 0.16 | 2.62 ± 0.23
5.1 µg/ml, genetic background: ΔsoxS | 2.62 ± 0.67 | 0.888 ± 0.25 | 1.07 ± 0.85 | 0.942 ± 0.027 | 0.323 ± 0.083 | 0.309 ± 0.34 | 1.09 ± 0.38 | 2.51 ± 0.032
